{
  "source": "the supplement of paper PMC8007513",
  "note": "This is one part of the list. Single values are uncertain, as repeats are few or missing.",
  "data": [
    {"test_system": "Saccharomyces cerevisiae BY4743", "experiment": "growth (OD600) relative to untreated control; higher = less growth inhibition", "conditions": "compound concentration: 133 uM; 20 h", "description": "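NMCCC compounds (133 uM, no IPBC) tested alone against Saccharomyces cerevisiae BY4743 in YPD, 96-well plates, starting OD600 ~0.1. Growth was read as OD600 at 20 h and expressed as % of the untreated control. Single pass.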", "units": {"growth": "%"}, "values": [
      {"smiles": "COc1ncccc1C(=O)Nc1ccc(-n2cncn2)nc1", "growth": 90.8},
      {"smiles": "CCN(CC)C(=O)c1sc(N2C(=O)Nc3ccccc3N2O)c(C(=O)OC)c1C", "growth": 112},
      {"smiles": "COC1=CC=C(N[S](=O)(=O)C2=CC=C3\\N=C/N[S](=O)(=O)C3=C2)C=C1", "growth": 86.9},
      {"smiles": "COC(=O)\\C1=C\\N(NC(=O)C2=CC(=CC=C2Cl)Br)C(=O)C3=CC=CC=C13", "growth": 91.6},
      {"smiles": "COc1cccc(-c2nc(NCCO)c3ccccc3n2)c1", "growth": 98.6},
      {"smiles": "CCOC(=O)Cc1csc(SCc2cc(C)no2)n1", "growth": 81.8},
      {"smiles": "CC(OC(=O)\\C1=N\\N(C(=O)CC1)C2=CC=CC=C2)C(=O)NC3=CC=CC=C3OC(F)F", "note": "(stereo not drawn)", "growth": 90.5},
      {"smiles": "C[S](=O)(=O)NC1=CC=CC(=C1)\\C2=N\\N(C(C2)C3=CC=CC=C3O)[S](C)(=O)=O", "note": "(stereo not drawn)", "growth": 101},
      {"smiles": "CCN(CC)CCS\\C1=N\\C(=C(\\CC)C(=O)N1C2=CC=CC=C2)O", "growth": 97.1},
      {"smiles": "CN(C)CCN(Cc1ccccc1)C(=O)Cn1c(=O)oc2ccccc21", "growth": 98.4},
      {"smiles": "CC(C)N(Cc1ccccc1)Cc1nc(O)c2sccc2n1", "growth": 103},
      {"smiles": "CCCN1\\C=C(/C(=O)C2=CC(=CC=C12)CC)[S](=O)(=O)C3=CC=C(OC)C=C3", "growth": 105},
      {"smiles": "CC1Cc2ccccc2N1C(=O)COC(=O)c1cc(S(=O)(=O)N(C)C)ccc1Cl", "note": "(stereo not drawn)", "growth": 98},
      {"smiles": "Cc1ccccc1N(C)C(=O)c1cccc2c1SCCC2=O", "growth": 103},
      {"smiles": "O=C(NCc1ccco1)N1CCN(c2ccccn2)CC1", "growth": 96.7},
      {"smiles": "CC(OCc1ccccc1)C(=O)Nc1cccc2c[nH]nc12", "note": "(stereo not drawn)", "growth": 92.9},
      {"smiles": "CC(C)CN1\\C(=N/[S](=O)(=O)C2=CC(=CC=C12)C(=O)N(C)CC3=CC=CC=C3)C", "growth": 103},
      {"smiles": "Cc1ccc(Cl)cc1N1C(=O)N(C)c2ccccc2S1(=O)=O", "growth": 83.4},
      {"smiles": "CC(C)CC(NS(=O)(=O)c1ccc2c(c1)CCCC(=O)N2)C(=O)N1CCOCC1", "note": "(stereo not drawn)", "growth": 95.7},
      {"smiles": "COC(=O)c1ccc(C(=O)Nc2ccccc2C(=O)NCc2ccccc2)s1", "growth": 94.3},
      {"smiles": "CS(=O)(=O)Nc1nc2ccc(NC(=O)COc3ccccc3)cc2s1", "growth": 87.5},
      {"smiles": "CCn1c(O)nnc1SCc1csc(C)n1", "growth": 103},
      {"smiles": "CC(C)C(Nc1ccc(C(F)(F)F)cc1Cl)C(=O)OCC(=O)N1CCNC1=O", "note": "(stereo not drawn)", "growth": 91.9},
      {"smiles": "CC(=O)N1c2ccc(S(=O)(=O)NC(C(=O)Nc3ccccn3)C(C)C)cc2CC1C", "note": "(stereo not drawn)", "growth": 107},
      {"smiles": "COc1ccccc1NC(=O)CN(C)S(=O)(=O)c1ccc2c(c1)n(C)c(=O)c(=O)n2C", "growth": 108},
      {"smiles": "Cc1cccc(-c2csc(N)c2C(=O)OC(C)C)c1", "growth": 17.6},
      {"smiles": "CCOC(=O)\\C1=C(/C)NC(=O)N(CC(=O)NC2=CC=C(F)C=C2F)C1C3=CC=CC=C3", "note": "(stereo not drawn)", "growth": 96},
      {"smiles": "O=C(NCc1cc(-c2ccccc2)no1)C(=O)Nc1cc(F)cc(F)c1", "growth": 106},
      {"smiles": "COC(=O)c1c(C)[nH]c(C(=O)N2CCN(S(C)(=O)=O)CC2)c1C", "growth": 101},
      {"smiles": "CCC(C)(CNC(=O)c1cc(Br)c(Br)s1)N1CCOCC1", "note": "(stereo not drawn)", "growth": 108},
      {"smiles": "COC(=O)CNC(=O)CSc1nnc(-c2ccccc2C)n1-c1ccccc1", "growth": 90.6},
      {"smiles": "Cc1ccnc(NC(=O)c2ccc(C)cc2Cl)c1", "growth": 95.7},
      {"smiles": "COC(=O)c1ccc(CSc2nnc(CNC(=O)c3ccccc3F)o2)o1", "growth": 97.3},
      {"smiles": "CCn1c(C)cc(C(=O)CSc2n[nH]c(N)n2)c1C", "growth": 115},
      {"smiles": "Cc1cc(C(=O)COc2ncnc3c(Cl)cc(Cl)cc23)c(C)n1C", "growth": 80.6},
      {"smiles": "Cc1ccn(CCC(=O)NC(C)Cc2ccco2)n1", "note": "(stereo not drawn)", "growth": 98},
      {"smiles": "CCCCN1\\C(=N/[S](=O)(=O)C2=CC(=CC=C12)C(=O)NCCN3CCOCC3)C", "growth": 109},
      {"smiles": "CN(CCOC1=CC=C(F)C=C1)CC/2=C/C(=O)N/3\\C=C/C=C\\C3=N2", "growth": 101}
    ]}
  ]
}
